Values quoted from earlier work as cited in EP2550959A1 (priority 2011, dated 2013).

Sequences of proteins named here, by UniProt entry; tags and fusion partners are left off. Residues count along the entry.
UniProt F1SMV8, 1-481: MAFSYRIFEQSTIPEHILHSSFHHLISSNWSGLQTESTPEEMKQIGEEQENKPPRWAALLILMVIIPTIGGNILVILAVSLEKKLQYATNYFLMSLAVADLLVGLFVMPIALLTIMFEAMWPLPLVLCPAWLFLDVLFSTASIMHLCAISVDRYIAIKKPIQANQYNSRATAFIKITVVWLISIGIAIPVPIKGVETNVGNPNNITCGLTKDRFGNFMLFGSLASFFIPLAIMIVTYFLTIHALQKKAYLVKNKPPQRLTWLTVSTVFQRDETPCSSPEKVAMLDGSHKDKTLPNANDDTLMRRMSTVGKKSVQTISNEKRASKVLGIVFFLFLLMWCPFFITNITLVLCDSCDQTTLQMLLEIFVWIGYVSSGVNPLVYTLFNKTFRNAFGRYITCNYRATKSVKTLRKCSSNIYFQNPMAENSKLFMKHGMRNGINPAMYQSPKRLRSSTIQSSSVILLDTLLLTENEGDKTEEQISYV
UniProt P50129, whole entry: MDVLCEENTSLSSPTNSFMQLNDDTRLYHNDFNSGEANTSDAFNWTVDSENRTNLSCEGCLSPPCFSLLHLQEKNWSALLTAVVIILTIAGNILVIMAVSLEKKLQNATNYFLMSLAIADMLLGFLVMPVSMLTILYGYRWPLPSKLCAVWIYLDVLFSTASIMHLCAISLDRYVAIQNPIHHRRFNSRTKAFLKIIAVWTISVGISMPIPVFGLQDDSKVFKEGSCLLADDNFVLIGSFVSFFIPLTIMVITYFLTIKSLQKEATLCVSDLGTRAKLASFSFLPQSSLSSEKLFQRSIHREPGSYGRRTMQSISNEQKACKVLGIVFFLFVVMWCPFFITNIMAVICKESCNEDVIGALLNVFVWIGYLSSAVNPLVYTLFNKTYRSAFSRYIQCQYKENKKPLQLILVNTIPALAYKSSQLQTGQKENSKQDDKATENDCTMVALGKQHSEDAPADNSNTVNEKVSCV
UniProt P30994, whole entry: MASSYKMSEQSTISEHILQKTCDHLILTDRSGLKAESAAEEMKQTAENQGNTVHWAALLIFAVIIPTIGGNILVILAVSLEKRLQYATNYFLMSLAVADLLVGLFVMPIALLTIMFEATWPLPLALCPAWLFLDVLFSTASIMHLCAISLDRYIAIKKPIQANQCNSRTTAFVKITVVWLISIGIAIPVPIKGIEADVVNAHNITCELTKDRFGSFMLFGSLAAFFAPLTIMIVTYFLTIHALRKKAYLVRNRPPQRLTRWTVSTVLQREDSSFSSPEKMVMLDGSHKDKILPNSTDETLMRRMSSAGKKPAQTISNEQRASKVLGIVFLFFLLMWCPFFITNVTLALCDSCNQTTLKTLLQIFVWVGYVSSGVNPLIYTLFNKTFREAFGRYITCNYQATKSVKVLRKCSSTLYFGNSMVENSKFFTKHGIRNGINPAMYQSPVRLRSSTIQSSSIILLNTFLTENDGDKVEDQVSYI

Assays:
[1] = biological target: 5-HT2B Rezeptoren von Schweinelungenarterien (Sus scrofa, UniProt F1SMV8); settings: under physiological conditions; not surmountable by highest 5-HT concentrations; cited from earlier work
[2] = biological target: 5-HT2A Rezeptoren von Schweineherzkranzarterien (Sus scrofa, UniProt P50129); settings: cited from earlier work
5-HT2B-Rezeptoren = 5-HT2B-Rezeptoren (Rattus norvegicus, UniProt P30994); settings: in vitro, isolated rat stomach [Villalon et al. 2003]; cited from earlier work

## CCN(CC)C(=O)N[C@H]1C=C2c3cccc4[nH]cc(c34)C[C@H]2N(C)C1 [Lisurid, 3-(9,10-didehydro-6-methylergoline-8alpha-yl)-1,1-diethylurea]
[1]
  type of antagonism at the 5-HT2B-Rezeptor: irreversibler Antagonist
[2]; also at high concentrations
  intrinsische agonistische Aktivität: keine intrinsische agonistische Aktivität
[2]; footnote a: pD'2 (non-competitive antagonism), footnote c: value from Diss. Jähnichen, FU Berlin, 2005
  5-HT2A pD'2 -Wert: 9.40 0.05^a,c
[2]; under physiological conditions
  type of antagonism at the 5-HT2A-Rezeptor: nicht-kompetitiver Antagonist
5-HT2B-Rezeptoren
  anti-serotoninerge Potenz: besonders hohe anti-serotoninerge Potenz
